PubChem BioAssay AID743454, Peter MacCallum Cancer Centre | 2014
Shown is an unselected part of about 18,000 reagents tested. Over the whole deposit, 450 (2.5%) were called active. 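Single biological run; no consistent viability z cut-off exists, so the class columns, not z-scores, define the calls.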 The numbers tell different reagents against one gene apart. Reagent sequences are not shown.

- Assay: 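Knock-downs lowering viability or raising caspase 3/7 activity in vorinostat-treated resistant cells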 (primary screen)
- Cells: human HCT116-VR colon cancer cells, selected for vorinostat resistance
- Reagent: siRNA pool against human genes, 40 nM siRNA pool
- Time to read-out: vorinostat for 24 h, read-out about 72 h after transfection
- Conditions: vorinostat at 2.5 µM final
- Measured: 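Cell viability by CellTiter-Fluor and caspase 3/7 activity by luminescence, each scaled to mock wells per plate, duplicates averaged, then robust z-scored over all plates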
- Direction: viability robust z-score: higher = more viable cells than screen typical; caspase robust z-score: higher = more caspase 3/7 activity than screen typical
- Hit rule: 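Hits are knock-downs in viability class RV1/RV2 or caspase class CA1/CA2, excluding ones that killed cells in the no-drug cell-count arm; hits then retested with single siRNAs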

With knock-down of CSTF1 (cleavage stimulation factor subunit 1) the results were viability hit class no change; caspase hit class no change; viability robust z-score 0.42; caspase robust z-score -0.59; inactive. Against RCC1 (regulator of chromosome condensation 1) #1 the deposit lists viability hit class no change; caspase hit class no change; viability robust z-score 0.58; caspase robust z-score 2.46; inactive. Knock-down of RCC1 (regulator of chromosome condensation 1) #2 resulted in: viability hit class no change; caspase hit class no change; viability robust z-score -0.44; caspase robust z-score 3; inactive. NMRK1 (nicotinamide riboside kinase 1) gave viability hit class no change; caspase hit class no change; viability robust z-score 0.46; caspase robust z-score 0.08; inactive. ARF1 (ARF GTPase 1) scored viability hit class no change; caspase hit class no change; viability robust z-score -1.77; caspase robust z-score 3; inactive. With knock-down of TEKTL1 (tektin like 1) the results were viability hit class no change; caspase hit class no change; viability robust z-score 0.84; caspase robust z-score 1.31; inactive.

MS4A8 (membrane spanning 4-domains A8) showed viability hit class no change; caspase hit class no change; viability robust z-score -0.34; caspase robust z-score -0.48; inactive. MYO9A (myosin IXA) showed viability hit class no change; caspase hit class no change; viability robust z-score -0.01; caspase robust z-score -0.43; inactive. For KLHL27 (kelch like family member 27), the entry reads viability hit class no change; caspase hit class no change; viability robust z-score 0.12; caspase robust z-score 0.3; inactive. After knock-down of MAGEB10 (MAGE family member B10), the record shows viability hit class no change; caspase hit class no change; viability robust z-score -0.66; caspase robust z-score -0.16; inactive. With knock-down of CD200R1 (CD200 receptor 1) the results were viability hit class no change; caspase hit class no change; viability robust z-score -0.52; caspase robust z-score 0.21; inactive. RAMP2 (receptor activity modifying protein 2) showed viability hit class no change; caspase hit class no change; viability robust z-score 0.88; caspase robust z-score 0.35; inactive.

HRC (histidine rich calcium binding protein) showed viability hit class no change; caspase hit class no change; viability robust z-score -0.33; caspase robust z-score 3.89; inactive.

Targets listed so far whose target name starts with R or r (3):
RCC1 (regulator of chromosome condensation 1) #1 | viability hit class: no change; caspase hit class: no change; viability robust z-score: 0.58; caspase robust z-score: 2.46; Call: inactive
RCC1 (regulator of chromosome condensation 1) #2 | viability hit class: no change; caspase hit class: no change; viability robust z-score: -0.44; caspase robust z-score: 3; Call: inactive
RAMP2 (receptor activity modifying protein 2) | viability hit class: no change; caspase hit class: no change; viability robust z-score: 0.88; caspase robust z-score: 0.35; Call: inactive

The results go on:
Against DIPK2B (divergent protein kinase domain 2B), the values are viability hit class no change; caspase hit class no change; viability robust z-score -0.47; caspase robust z-score -0.84; inactive. After knock-down of HYI (hydroxypyruvate isomerase (putative)), the record shows viability hit class no change; caspase hit class no change; viability robust z-score 0.12; caspase robust z-score -0.2; inactive. Depletion of TBX1 (T-box transcription factor 1) came out at: viability hit class no change; caspase hit class no change; viability robust z-score -0.8; caspase robust z-score 0.6; inactive. With knock-down of CDH20 (cadherin 20), the record shows viability hit class no change; caspase hit class no change; viability robust z-score -0.2; caspase robust z-score 0.24; inactive. Depletion of IL36A (interleukin 36 alpha) resulted in: viability hit class no change; caspase hit class no change; viability robust z-score -0.41; caspase robust z-score 0.49; inactive. WDR59 (WD repeat domain 59) scored viability hit class no change; caspase hit class no change; viability robust z-score -0.45; caspase robust z-score 2.12; inactive.

PNPLA4 gave viability hit class no change; caspase hit class no change; viability robust z-score 0.72; caspase robust z-score -0.72; inactive. Against TSEN34 (tRNA splicing endonuclease subunit 34) the deposit lists viability hit class no change; caspase hit class no change; viability robust z-score 1.51; caspase robust z-score 0.94; inactive.
